Reference: article doi:10.1101/2024.04.03.587821

By UniProt entry, the sequences of proteins in these tests, tags left out.
UniProt Q15154: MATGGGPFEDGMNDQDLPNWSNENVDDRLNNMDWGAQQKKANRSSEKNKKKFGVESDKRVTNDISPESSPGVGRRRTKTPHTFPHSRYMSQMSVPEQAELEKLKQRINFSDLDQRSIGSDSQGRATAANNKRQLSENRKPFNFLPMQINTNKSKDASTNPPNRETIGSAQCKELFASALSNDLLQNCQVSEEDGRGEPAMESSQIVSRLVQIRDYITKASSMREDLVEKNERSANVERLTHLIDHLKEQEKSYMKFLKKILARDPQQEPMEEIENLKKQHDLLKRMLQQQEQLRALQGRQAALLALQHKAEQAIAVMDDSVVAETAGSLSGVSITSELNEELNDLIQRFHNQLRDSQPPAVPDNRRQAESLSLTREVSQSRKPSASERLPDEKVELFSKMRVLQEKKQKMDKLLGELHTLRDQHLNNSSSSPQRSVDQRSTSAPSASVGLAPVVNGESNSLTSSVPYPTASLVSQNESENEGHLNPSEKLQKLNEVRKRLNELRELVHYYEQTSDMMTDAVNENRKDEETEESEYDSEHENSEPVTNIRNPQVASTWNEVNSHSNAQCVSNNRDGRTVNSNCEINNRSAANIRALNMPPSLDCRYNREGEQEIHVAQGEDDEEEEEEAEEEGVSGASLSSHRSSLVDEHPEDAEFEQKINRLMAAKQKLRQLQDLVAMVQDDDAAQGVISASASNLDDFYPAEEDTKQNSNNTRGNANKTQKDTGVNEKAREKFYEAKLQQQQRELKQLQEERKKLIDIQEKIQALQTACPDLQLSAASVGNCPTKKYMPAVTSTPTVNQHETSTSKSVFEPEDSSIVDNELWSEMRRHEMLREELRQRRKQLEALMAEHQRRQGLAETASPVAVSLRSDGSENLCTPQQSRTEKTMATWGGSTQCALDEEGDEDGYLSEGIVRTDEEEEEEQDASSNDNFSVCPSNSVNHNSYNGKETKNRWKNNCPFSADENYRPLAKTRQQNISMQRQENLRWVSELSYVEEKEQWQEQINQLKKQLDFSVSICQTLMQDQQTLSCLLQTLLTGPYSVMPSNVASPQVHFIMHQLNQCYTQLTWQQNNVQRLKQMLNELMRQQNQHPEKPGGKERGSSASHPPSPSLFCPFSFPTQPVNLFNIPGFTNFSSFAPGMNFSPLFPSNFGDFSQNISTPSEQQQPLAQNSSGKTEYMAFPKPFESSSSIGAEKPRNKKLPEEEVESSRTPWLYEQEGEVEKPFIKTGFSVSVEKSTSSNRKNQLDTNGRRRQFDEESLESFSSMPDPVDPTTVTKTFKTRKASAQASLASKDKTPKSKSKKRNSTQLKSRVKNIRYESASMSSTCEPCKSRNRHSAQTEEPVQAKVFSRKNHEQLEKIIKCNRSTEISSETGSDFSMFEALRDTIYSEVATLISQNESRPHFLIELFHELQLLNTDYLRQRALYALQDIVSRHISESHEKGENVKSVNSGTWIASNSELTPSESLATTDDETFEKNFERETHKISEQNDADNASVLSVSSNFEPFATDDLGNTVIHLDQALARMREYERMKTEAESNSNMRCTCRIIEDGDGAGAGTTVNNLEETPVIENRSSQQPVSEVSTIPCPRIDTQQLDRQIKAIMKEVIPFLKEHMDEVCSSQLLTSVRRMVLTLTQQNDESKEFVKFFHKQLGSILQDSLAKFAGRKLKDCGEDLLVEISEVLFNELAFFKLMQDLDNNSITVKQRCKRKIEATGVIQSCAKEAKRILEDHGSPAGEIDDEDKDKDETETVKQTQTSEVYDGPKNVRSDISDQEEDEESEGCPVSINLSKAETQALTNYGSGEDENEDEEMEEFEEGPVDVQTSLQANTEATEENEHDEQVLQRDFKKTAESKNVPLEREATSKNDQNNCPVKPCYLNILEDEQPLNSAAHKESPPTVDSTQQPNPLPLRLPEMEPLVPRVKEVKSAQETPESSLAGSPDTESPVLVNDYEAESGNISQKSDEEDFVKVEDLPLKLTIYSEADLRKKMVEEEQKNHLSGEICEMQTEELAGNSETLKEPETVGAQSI

Biological target: T1, eGFP-Kif9 (HCT116 cells stably expressing eGFP-Kif9) (human) (UniProt Q9HAQ2)
T1 sequence: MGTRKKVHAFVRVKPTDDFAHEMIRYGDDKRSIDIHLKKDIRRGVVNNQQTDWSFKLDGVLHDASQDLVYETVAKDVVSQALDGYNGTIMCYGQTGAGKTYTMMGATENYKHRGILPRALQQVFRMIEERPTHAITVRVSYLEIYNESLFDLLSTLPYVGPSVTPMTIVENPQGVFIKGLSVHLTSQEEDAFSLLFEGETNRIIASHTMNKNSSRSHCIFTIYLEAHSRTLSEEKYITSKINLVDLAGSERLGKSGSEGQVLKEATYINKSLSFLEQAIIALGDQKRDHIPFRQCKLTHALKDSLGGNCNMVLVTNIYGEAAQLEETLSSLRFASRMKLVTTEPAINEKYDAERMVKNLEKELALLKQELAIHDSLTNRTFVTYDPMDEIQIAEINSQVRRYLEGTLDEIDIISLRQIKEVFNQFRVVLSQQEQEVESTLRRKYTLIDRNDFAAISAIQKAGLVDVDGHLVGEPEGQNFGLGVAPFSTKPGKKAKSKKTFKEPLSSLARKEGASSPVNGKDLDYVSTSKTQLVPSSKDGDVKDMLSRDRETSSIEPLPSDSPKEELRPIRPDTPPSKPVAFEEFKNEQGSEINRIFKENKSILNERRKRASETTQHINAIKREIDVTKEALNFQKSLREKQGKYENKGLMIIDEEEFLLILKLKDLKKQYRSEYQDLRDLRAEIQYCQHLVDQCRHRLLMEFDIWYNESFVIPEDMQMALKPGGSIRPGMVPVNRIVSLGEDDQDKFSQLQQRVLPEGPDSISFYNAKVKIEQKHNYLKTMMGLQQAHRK
Assay: affinity purification with mass spectrometry

Question: With “PCM1 (endogenous, HCT116) (from UniProt Q15154 1-2024)” as the substance, how does the binding read?
Answer: Its binding is “binds”.

No constants are given. Whether binding was seen depends on the method and setting. Binding seen in cells or lysates may run through a third protein. These calls come from enrichment with a bait or labelling near it, and not all partners need be listed. Tags and fused reporters may be left off the sequences shown.
